From patent US20220323406A1, “METHODS AND COMPOSITIONS FOR DIFFERENTIATING STEM CELLS” (Massachusetts Institute of Technology, priority 2019, published 2022)
Values joined by “and” are separate entries in the source; they are usually repeats but may differ in a detail not shown here. Equal entries are not always repeated. The name of at least one read-out is uncertain.

How the values were obtained:
ENR+CD organoids [1] = experiment: Primary screen: ATP (CellTiter-Glo 3D, CTG) cell number/viability, 2.5-D 384-well ENR+CD organoids; settings: for Z.CTG (standard z score) / Z.CTG: primary screen; for Z.CTG: standard z score;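 for all read-outs here: compounds given at plating and again on day 3 over a 6-day differentiation from ENR+CV stem-cell-enriched precursors, ATP measured on day 6, plate median as control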
[2] = tested on: ENR+CD organoids (ISC to Paneth cell differentiation); experiment: Primary screen: CCh-stimulated lysozyme secretion LYZ.S, 2.5-D 384-well ENR+CD organoid differentiation; type: cell-based, mouse; settings: Table 5A primary screen; grouped by compound and dose; four dose lines per treatment, dose (uM) not given
Text: (§1) High-throughput screening.

ENR+CD organoids [3] = experiment: Secondary (validation) screen: ATP (CTG) assay, 2.5-D 384-well ENR+CD organoids; type: cell-based, mouse; settings: 6-day ENR+CD, vs ENR+CD+DMSO
Method: (§2) Drugs were tested at a narrowed dose range around each treatment's identified optimal dose from the primary screen (4× below, 2× above and below).
as §1
(§3) Secondary lysozyme secretion assay screen. Confirmatory secondary screening with primary hits was performed using the above 384-well plate method. The screen was conducted with 4-plate replicates with a base media of ENR+CD. Media was supplemented with compound at day 0 and day 3 (n=8 well replicates per dose) at four different doses: two-fold above, two-fold below, and four-fold below the optimal final dose for each respective treatment. Additionally, each plate carried a large number of ENR+DMSO or ENR+CD+DMSO (vehicle) control wells (n=100 for ATP, and n=25 for LYZ.NS and LYZ.S) for robust normalization. ATP, non-stimulated lysozyme activity and CCh-stimulated lysozyme activity was again measured and the collected data was again processed in a custom R-script, per primary screen with slight modification. Values were log10 transformed, and a plate-wise FC was calculated for each well based on the median value of ENR+CD+DMSO (vehicle) control wells to normalize plate to plate variability.

[4] = tested on: ENR+CD organoids (ISC to Paneth cell differentiation); experiment: Secondary (validation) screen: LYZ.NS basal lysozyme secretion, 2.5-D 384-well ENR+CD organoids; type: cell-based, mouse; settings: 6-day ENR+CD, vs ENR+CD+DMSO
Method: as §2, §1, §3

[5] = tested on: ENR+CD organoids (ISC to Paneth cell differentiation); experiment: Secondary (validation) screen: LYZ.S CCh-stimulated lysozyme secretion, 2.5-D 384-well ENR+CD organoids; type: cell-based, mouse; settings: 6-day ENR+CD, vs ENR+CD+DMSO
Method: as §2, §1, §3

O=c1ncccn1[C@@H]1O[C@H](CO)[C@@H](O)[C@H]1O [Zebularine]
Z.CTG (standard z score) (ENR+CD organoids [1]; dose 0.08 uM): 0.085
Z.CTG (standard z score) (ENR+CD organoids [1]; dose 0.40 uM): 0.000
Z.CTG (standard z score) (ENR+CD organoids [1]; dose 2.00 uM): −0.213
Z.CTG (standard z score) (ENR+CD organoids [1]; dose 10.00 uM): −0.399
Z.LYZ.S (standard z score, CCh-stimulated lysozyme secretion) [2]: 0.597 and 0.501 and 0.329 and 0.658

Cc1cn(-c2cc(NC(=O)c3ccc(C)c(Nc4nccc(-c5cccnc5)n4)c3)cc(C(F)(F)F)c2)cn1 [Nilotinib (AMN-107), Nilotinib]
Z.CTG (ENR+CD organoids [3]; 0.10 uM): 0.830
repSSMD.CTG (ENR+CD organoids [3]; 0.10 uM): 0.571
Z.CTG (ENR+CD organoids [3]; 0.20 uM): 1.098
repSSMD.CTG (ENR+CD organoids [3]; 0.20 uM): 0.777
Z.CTG (ENR+CD organoids [3]; 0.40 uM): 1.275
repSSMD.CTG (ENR+CD organoids [3]; 0.40 uM): 0.902
Z.CTG (ENR+CD organoids [3]; 0.80 uM): 2.104
repSSMD.CTG (ENR+CD organoids [3]; 0.80 uM): 1.535
Z.LYZ.NS ([4]; 0.10 uM): 0.734
repSSMD.LYZ.NS ([4]; 0.10 uM): 1.309
Z.LYZ.NS ([4]; 0.20 uM): 1.283
repSSMD.LYZ.NS ([4]; 0.20 uM): 1.683
Z.LYZ.NS ([4]; 0.40 uM): 0.805
repSSMD.LYZ.NS ([4]; 0.40 uM): 1.064
Z.LYZ.NS ([4]; 0.80 uM): 1.317
repSSMD.LYZ.NS ([4]; 0.80 uM): 1.063
Z.LYZ.S ([5]; 0.10 uM): 0.339
repSSMD.LYZ.S ([5]; 0.10 uM): 0.652
Z.LYZ.S ([5]; 0.20 uM): 0.897
repSSMD.LYZ.S ([5]; 0.20 uM): 1.324
Z.LYZ.S ([5]; 0.40 uM): −0.053
repSSMD.LYZ.S ([5]; 0.40 uM): −0.055
Z.LYZ.S ([5]; 0.80 uM): 1.099
repSSMD.LYZ.S ([5]; 0.80 uM): 0.953
Z.CTG (ENR+CD organoids [1]; dose 0.08 uM): 0.769
Z.CTG (ENR+CD organoids [1]; dose 0.40 uM): 0.831
Z.CTG (ENR+CD organoids [1]; dose 2.00 uM): 0.577
Z.CTG (ENR+CD organoids [1]; dose 10.00 uM): −0.029

O=C(/C=C\n1cnc(-c2cc(C(F)(F)F)cc(C(F)(F)F)c2)n1)NNc1cnccn1 [KPT-330]
Z.CTG (ENR+CD organoids [3]; 0.02 uM): 1.135
repSSMD.CTG (ENR+CD organoids [3]; 0.02 uM): 0.959
Z.CTG (ENR+CD organoids [3]; 0.04 uM): 0.263
repSSMD.CTG (ENR+CD organoids [3]; 0.04 uM): 0.179
Z.CTG (ENR+CD organoids [3]; 0.08 uM): 1.273
repSSMD.CTG (ENR+CD organoids [3]; 0.08 uM): 0.916
Z.LYZ.NS ([4]; 0.02 uM): −0.038
repSSMD.LYZ.NS ([4]; 0.02 uM): −0.050
Z.LYZ.NS ([4]; 0.04 uM): −0.318
repSSMD.LYZ.NS ([4]; 0.04 uM): −0.506
Z.LYZ.NS ([4]; 0.08 uM): 1.132
repSSMD.LYZ.NS ([4]; 0.08 uM): 1.621
Z.LYZ.S ([5]; 0.02 uM): −0.028
repSSMD.LYZ.S ([5]; 0.02 uM): −0.044
Z.LYZ.S ([5]; 0.04 uM): −0.587
repSSMD.LYZ.S ([5]; 0.04 uM): −0.955
Z.LYZ.S ([5]; 0.08 uM): 1.031
repSSMD.LYZ.S ([5]; 0.08 uM): 1.678
Z.CTG (standard z score) (ENR+CD organoids [1]; dose 0.08 uM): 0.503
Z.CTG (standard z score) (ENR+CD organoids [1]; dose 0.40 uM): −1.569
Z.CTG (standard z score) (ENR+CD organoids [1]; dose 2.00 uM): −2.135
Z.CTG (standard z score) (ENR+CD organoids [1]; dose 10.00 uM): −4.480

N#CC[C@H](C1CCCC1)n1cc(-c2ncnc3[nH]ccc23)cn1 [Ruxolitinib (INCB018424), Ruxolitinib]
Z.CTG (ENR+CD organoids [3]; 2.50 uM): −0.128
repSSMD.CTG (ENR+CD organoids [3]; 2.50 uM): −0.090
Z.CTG (ENR+CD organoids [3]; 5.00 uM): −2.016
repSSMD.CTG (ENR+CD organoids [3]; 5.00 uM): −1.168
Z.CTG (ENR+CD organoids [3]; 10.00 uM): −1.380
repSSMD.CTG (ENR+CD organoids [3]; 10.00 uM): −1.030
Z.CTG (ENR+CD organoids [3]; 20.00 uM): 1.496
repSSMD.CTG (ENR+CD organoids [3]; 20.00 uM): 0.952
Z.LYZ.NS ([4]; 2.50 uM): −1.251
repSSMD.LYZ.NS ([4]; 2.50 uM): −1.701
Z.LYZ.NS ([4]; 5.00 uM): −1.098
repSSMD.LYZ.NS ([4]; 5.00 uM): −1.569
Z.LYZ.NS ([4]; 10.00 uM): −0.671
repSSMD.LYZ.NS ([4]; 10.00 uM): −1.103
Z.LYZ.NS ([4]; 20.00 uM): 0.522
repSSMD.LYZ.NS ([4]; 20.00 uM): 0.930
Z.LYZ.S ([5]; 2.50 uM): −1.400
repSSMD.LYZ.S ([5]; 2.50 uM): −1.806
Z.LYZ.S ([5]; 5.00 uM): −1.667
repSSMD.LYZ.S ([5]; 5.00 uM): −2.281
Z.LYZ.S ([5]; 10.00 uM): −1.289
repSSMD.LYZ.S ([5]; 10.00 uM): −2.212
Z.LYZ.S ([5]; 20.00 uM): 0.208
repSSMD.LYZ.S ([5]; 20.00 uM): 0.382
SSMD.CTG (ENR+CD organoids [1]; Table 5A primary screen, strictly standardized mean difference, four lines per treatment = four doses, dose not given): 1.303 and 1.194 and 1.316 and 1.606
Z.CTG (ENR+CD organoids [1]; dose 0.08 uM): 1.093
Z.CTG (ENR+CD organoids [1]; dose 0.40 uM): 0.867
Z.CTG (ENR+CD organoids [1]; dose 2.00 uM): 1.062
Z.CTG (ENR+CD organoids [1]; dose 10.00 uM): 1.140
